Source: PMC3743049
These are yes or no findings as the source states them, for the method shown. In cells and extracts the contact can be indirect. Some binding calls cover weakened binding; strength is not graded here. Values belong to the molecule of their own block, whether it stands above or below them.

Sequences of proteins named here, by UniProt entry; tags and fusion partners are left off.
UniProt P42227: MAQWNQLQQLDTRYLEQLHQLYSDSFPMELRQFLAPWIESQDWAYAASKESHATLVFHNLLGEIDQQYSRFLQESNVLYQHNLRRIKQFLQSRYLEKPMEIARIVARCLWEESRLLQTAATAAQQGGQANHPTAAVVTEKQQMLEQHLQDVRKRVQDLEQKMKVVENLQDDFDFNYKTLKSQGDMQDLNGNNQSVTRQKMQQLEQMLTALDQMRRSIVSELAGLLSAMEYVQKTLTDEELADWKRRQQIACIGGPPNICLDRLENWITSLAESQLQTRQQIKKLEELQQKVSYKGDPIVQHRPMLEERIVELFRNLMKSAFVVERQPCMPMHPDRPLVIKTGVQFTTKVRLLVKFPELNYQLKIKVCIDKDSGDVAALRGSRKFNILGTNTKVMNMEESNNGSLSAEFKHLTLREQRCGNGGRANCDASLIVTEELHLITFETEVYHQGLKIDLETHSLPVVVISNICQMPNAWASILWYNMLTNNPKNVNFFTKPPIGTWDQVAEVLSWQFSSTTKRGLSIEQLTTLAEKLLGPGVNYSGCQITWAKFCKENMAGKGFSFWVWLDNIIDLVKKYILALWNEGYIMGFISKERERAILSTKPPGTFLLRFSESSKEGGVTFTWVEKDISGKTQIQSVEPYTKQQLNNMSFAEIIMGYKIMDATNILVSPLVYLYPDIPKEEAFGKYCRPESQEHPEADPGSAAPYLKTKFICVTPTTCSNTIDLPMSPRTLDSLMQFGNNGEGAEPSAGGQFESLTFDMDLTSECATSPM
UniProt P05627: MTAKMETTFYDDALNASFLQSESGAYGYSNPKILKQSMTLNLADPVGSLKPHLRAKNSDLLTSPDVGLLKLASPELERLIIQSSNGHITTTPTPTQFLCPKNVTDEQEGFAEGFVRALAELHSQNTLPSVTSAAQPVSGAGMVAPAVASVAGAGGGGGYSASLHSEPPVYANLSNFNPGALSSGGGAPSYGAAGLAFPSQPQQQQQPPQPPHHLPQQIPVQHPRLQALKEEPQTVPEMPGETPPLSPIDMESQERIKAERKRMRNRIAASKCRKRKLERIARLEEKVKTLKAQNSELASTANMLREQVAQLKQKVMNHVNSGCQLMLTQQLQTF
UniProt Q64261: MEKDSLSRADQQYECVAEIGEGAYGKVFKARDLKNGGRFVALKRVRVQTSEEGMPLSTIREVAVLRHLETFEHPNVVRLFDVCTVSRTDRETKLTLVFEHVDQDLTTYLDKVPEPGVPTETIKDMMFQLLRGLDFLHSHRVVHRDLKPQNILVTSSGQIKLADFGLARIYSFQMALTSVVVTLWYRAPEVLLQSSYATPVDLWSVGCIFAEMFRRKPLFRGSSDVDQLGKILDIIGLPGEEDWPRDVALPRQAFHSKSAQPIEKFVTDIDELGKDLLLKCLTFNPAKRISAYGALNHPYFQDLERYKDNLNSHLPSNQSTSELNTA

How the values were obtained:
[1] = molecular target: STAT3 (mouse (endogenous in p185BCR-ABL-transformed murine cells)) (UniProt P42227); test: co-IP; anti-STAT3 or anti-c-JUN immunoprecipitation from cell extracts of p185BCR-ABL-transformed cells (Stat3Δ/Δ or c-JunΔ/Δ, Cdk6-/-, Cdk6+/+, Cdk6+/++Cdk6), immunoblotted for the bait and CDK6; CDK4 in Figure S7A
[2] = molecular target: c-JUN (mouse (endogenous in p185BCR-ABL-transformed murine cells)) (UniProt P05627); test: as above

binding [1]: binds
binding [2]: binds
Molecule: CDK6 (from UniProt Q64261 1-326)

binding [1]: no binding
binding [2]: no binding
B1: CDK4 (protein, UniProt P30285 1-303)
chain: MAATRYEPVAEIGVGAYGTVYKARDPHSGHFVALKSVRVPNGGAAGGGLPVSTVREVALLRRLEAFEHPNVVRLMDVCATSRTDRDIKVTLVFEHIDQDLRTYLDKAPPPGLPVETIKDLMRQFLSGLDFLHANCIVHRDLKPENILVTSNGTVKLADFGLARIYSYQMALTPVVVTLWYRAPEVLLQSTYATPVDMWSVGCIFAEMFRRKPLFCGNSEADQLGKIFDLIGLPPEDDWPREVSLPRGAFAPRGPRPVQSVVPEMEESGAQLLLEMLTFNPHKRISAFRALQHSYLHKEESDAE
